About 3,700 (7%) of roughly 53,000 sequences were called active.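 How the source made its calls: active means gene knockdowns whose robust z-score for IL-1 alpha signal is at least 2 or at most -2, so actives lie on both sides; inactive means the rest.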 The list shows a part of the results.

This note sets out measurements from PubChem BioAssay AID1508600 (Functional Genomics Laboratory (NCATS/FGL), 2020).

The test in a line: Components of the Cytosolic LPS Sensing Pathway: Gene Identification via Genome-wide siRNA Screen.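 Further: robust z of the log signal after scaling to non-targeting control siRNA wells of the plate.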 The following applies: RAW264.7 macrophages, IL-1a HTRF, actives lie on both sides, screened at 100 nM (by protocol), cells primed 5 h with Pam3CSK4 first. A digest of the protocol: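 Using IL-1a HTRF as read-out, the screen measured release from RAW264.7 cells after 48h siRNA knockdown (100 nM), 5 h Pam3CSK4 priming and 24 h cytosolic LipidA. Values were expressed relative to negative-control wells as robust z-scores.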
Turning to GAUAGGGAAUGCCAUACCGTT against Zfp771, the z-score was inactive: 0.343.
Then CCUGACUCCGAUUUUGAGUTT against Elp3, with inactive: -1.12.
Regarding GCAGGUAUGUACCGUUUCUTT against Etos1, the z-score was inactive: 0.585.
To GCUUGAAUCUAGCAGCUUUTT against Dvl1 belongs inactive: 0.404.
With GGCCACGACUCUUUGUUUATT against Ush1g, the z-score was inactive: -0.115.
GGAUUCUGUCUCCAGAUAUTT against Cabcoco1: the z-score was inactive: 1.3.
To CCUCUUGGUCGAAUUAUUATT against Hmgxb3 belongs inactive: 1.08.
With GGAGAAAAUACAACUGUGATT against Ctrc, the z-score was inactive: -1.05.
Then CCCGGAGUGGAAUUUACAGTT against Llgl1, with inactive: 1.35; and GGAACUAAUGAAACAGCUGTT against Abat, with inactive: -1.15; and GGGCAUCUUUGCAUUCAAGTT against Frs3, with inactive: 1.23.
For “GGUGGAUGCCUUGAAUAUGTT against 1700029P11Rik”, the z-score is active: -2.25.
GCAAAUUUACCUCAGUGCUTT against Olfr53: the z-score is inactive: 0.613.
For the sequence GCAUGAUAGGCCUGUUAUUTT against Gm4922, the z-score was inactive: 1.07.
To GGCCUGUGGUUAUGCUGUGTT against Cyp2b10 belongs inactive: -0.716.
To GCAACAGGUUAGCGAAACCTT against Hrk belongs inactive: -0.0754; to GGAGUAUCUUGAAAUGCAUTT against Gsap, inactive: -1.02.
To CGAGUGAGUAUUUUCUCUUTT against Gdf10 belongs inactive: -0.407.
In the case of GGAUGAAGAACUGAAAUCUTT against Unc13b, the z-score is inactive: 0.167.
Then GCUAUAGUGCCAAAUUUGCTT against Alad, with inactive: 0.0389; and GGAAUAUGAGAGAAGCUCATT against Dpf2, with inactive: -0.861.
Turning to “GGUAUAAGGUCAUAGAAUUTT against E230016K23Rik”, the z-score is inactive: 0.429.
With GCAACUAUCUGCUUAUUUATT against Tmem184a, the z-score was inactive: 0.428.
Then GCUGCUACUCUGGAGAAGCTT against Fcrlb, with inactive: -0.225; and GCCCUCAAAUGGCUUGAACTT against Lysmd4, with inactive: 1.06; and CCGGAUUGUGAUCUGUUACTT against Bckdha, with inactive: 0.728.
Then GCUUUAGUUGCUUUCCCUGTT against Gm5409, with inactive: 1.11.
As to UGCUCUCAAGCUUCAUUCUTT against Rarb, the z-score is inactive: 0.326.
To CCGUCUUCUGCUGUGGAACTT against Ctrc belongs active: 2.6; to CCUCGAGAGACUCAUACUGTT against Nlrc4, inactive: -0.131.
With GUUACACAGGAGUGUGUAATT against Rnase2a, the z-score is inactive: 0.573.
Then CCUAAUGAAUGGCUAAAUATT against Sh2b2, with inactive: 0.655; and GCACCUAAGAUCACAGCCUTT against Sh3gl1, with inactive: -1.7; and GGAUGAGUUCUUUAUGGAGTT against Cdh15, with inactive: 0.734.
Regarding GGAGCUGAAGACCACAAAGTT against Tbata, the z-score is inactive: -1.29.
Then GGCAGCACCUAAACAAAAGTT against Rpl24, with inactive: -1.19.
To GGAAAAAAAGGUAGCUGGATT against Tspyl4 belongs active: 2.82.
In the case of “GGUAUUGUCUCUAGGAGACTT against 4932414J04Rik”, the z-score is inactive: 1.91.
Then GGUAUCUGUGCAAGGGCAATT against Defb5, with active: 2.07; and GGUGCUACCUCUAGAUAUUTT against Utp3, with inactive: 1.96; and GCAUGAAUUGUGGAAGAGATT against Csnk1a1, with active: 2.71.
To GCCAGGUGUGGUGACUCAUTT against Tprkb belongs inactive: 0.584; to GUGAAGAGGAGCAGGACUUTT against Klrc3, inactive: 0.261; to GGGAUCCUUAUUUCAUACUTT against Olfr868, inactive: 1.16.
Regarding CCCGUCCCAUCCAUUAUUUTT against Zfp787, the z-score was inactive: -1.19.
For CCUAAGGUUGUCUGUAAAUTT against Ndufs3, the z-score is inactive: -0.136.
Regarding GGUUCUGACUUGAGAAAACTT against Clba1, the z-score is inactive: 1.41.
To GCACCUAGUAUUGAAAGUCTT against Ccna2 belongs inactive: 0.229; to CGCGAUAACGAAGAACAAUTT against Tmod3, inactive: 1.78; to GGACUGUUUUGAGAAUUGATT against Vil1, inactive: -0.984.
Then GGUACUAUUAACAAACACUTT against Mtmr10, with inactive: -1.78; and UUUUCACCGAACAAAGAACTT against Slc25a47, with inactive: 0.833; and GGUCACUGUCAUCAACAGATT against Il6st, with inactive: -1.17.
To GGAGGACAUUGAUGUGAUGTT against Sag belongs inactive: 0.179.
For the sequence GGCUAUGGGAAUCAUGAAUTT against H2bc18, the z-score is active: -2.84.
Consider CCGAACAGAGGAAGAAGGCTT against Olfr816, for which the z-score is inactive: 0.281.
Regarding CCUCUGCCCAUUAUCGAAGTT against Cyp2c23, the z-score is inactive: -0.225.
For the sequence CCCGAGAAACCUGGAGUCUTT against Klk8, the z-score is inactive: -1.88.
Then GCUCUACAUGUUUAUCACATT against Olfr311, with inactive: -1.03; and GCACUAAAACCCAAUCAGATT against Fmnl3, with inactive: 1.01; and CCGUAAAAAAUUCUGUAAGTT against Ube2l3, with inactive: 0.475.
On to “GGAACACACAAUUUUAUCATT against 4933436I01Rik”, for which the z-score is active: -2.98.
Then GGAAUGGAAUACAAAGUCATT against Isg20l2, with inactive: -0.305; and UUGGGAAAACCAUGAUGCATT against Romo1, with inactive: -0.242; and “GCCGUAAGCUAGGAUCUGGTT against 1700065D16Rik”, with inactive: 0.787.
To “GAAAUGUACCUGCCUUUUCTT against D830030K20Rik” belongs inactive: 0.613; to GGUGAUAUGCAUGAAAAUGTT against Jpt1, inactive: -0.657; to CCGGAAAACAAAAUUGCUATT against Obp1a, inactive: 0.492.
To GCUAUUGCCUCAUCUUAUGTT against Olfr654 belongs inactive: 1.65; to CAAUAACAGCGAAACAUCCTT against Scn4b, inactive: 0.0989.
On to GGACAUGUGUCCAGUUUUCTT against Sspn, for which the z-score is inactive: -0.255.
To GGAGUUAAAAGAUGUAAUCTT against Pikfyve belongs inactive: 0.636; to GCUUCAAGUGAGUCUCACUTT against Nup35, inactive: 0.347.
Consider GGAGAACAUUCAAAAUACGTT against Sgo2a, for which the z-score was inactive: 0.827.
CCUCAUGCAGCUCAAUCUATT against Prelp: the z-score is active: -2.41.
Regarding GGGCAAGUUUGUGGAGCUUTT against Akr7a5, the z-score is inactive: 0.0772.
For CGUAUUCCAAAUACACUUGTT against Meox2, the z-score is inactive: 0.959.
To GUGGCACCUUUGGUGAAGCTT against Kiss1 belongs inactive: -0.59.
To GGGUUAUGUCUGUGGAGCUTT against Bcl2l2 belongs inactive: 1.37.
To GCGAGGACAUCGUAGAGAATT against Msi1 belongs inactive: 0.997; to GGAGCAUCAUUUUAACACUTT against Tubd1, inactive: 0.925.
As for GGGAAGCAGAAAUGAGAAATT against Pdcd5, the z-score was inactive: 0.135.
Then GGACACCAAAAGCUAAGUGTT against Cnppd1, with inactive: -1.98.
Then GGUCUAGAUUAUGAGCAAUTT against Pcdhga7, with inactive: 1.35; and CCUAACUUCACUUGAUAUGTT against Snx21, with inactive: 0.135; and GGUGGCCAUCAAGAAGAUATT against Mapk7, with inactive: -0.749.
Take “GGUCUCUAGUGGAAAAGCATT against A430093F15Rik”: the z-score was active: -3.05.
To CCAUCGUAUAAAUUACCAUTT against Plaa belongs inactive: -0.762; to GCCAGUUUAGGUAAUAAACTT against Socs1, inactive: 0.395; to GCCAUUCUGCCCUACACAATT against Rasa1, inactive: 0.135.
Then CCCUAGCAUCAAGAGUGCUTT against Fryl, with inactive: -0.00437; and GGUAUGACCUAGUGGAGGGTT against Trem1, with inactive: -0.0909; and GGACAGAAACUCCUUAUCATT against Zfp628, with inactive: -0.99.
For the sequence CCAUAGUGUAUCUGACUGGTT against Iqsec1, the z-score is inactive: -0.135.
To GCCGGGAGAGUAAUGUCUGTT against Lmtk3 belongs inactive: 0.547.
To GCGACCAGCCUGUUGUUGUTT against Vrtn belongs inactive: 0.538; to GGUCCCUAGAAAUUCGGGATT against Nphp3, inactive: 1.28.
As for CCAUCACUCUUAAAUAUUCTT against Klri2, the z-score was inactive: -1.36.
To GGAGGAGAAUUACUCCUUUTT against Med9 belongs inactive: 0.956; to GGACAGGAGCUGUUUGACCTT against Epb41l5, inactive: -0.885; to GGAGAAGUUAAAGAAGAACTT against Ddx55, inactive: -0.433.
On to GAGAUUUUGUUUGGGUUGUTT against Olfr1126, for which the z-score is inactive: 1.16.
Turning to GGAAGCAAGUAUCCCGAAUTT against Snhg11, the z-score was active: -2.58.
To GGCCCUAUUUUGGAUAACUTT against Tgfb1i1 belongs inactive: 0.344.
Then CGAUGACGAUGCCUAACCATT against Dgkeos, with active: -2.34; and “GGAUCUGUGUGCUAACAGCTT against 4930550C14Rik”, with inactive: 0.686.
With GGAUGAUCUUGGUGUACACTT against Tmem91, the z-score is active: 3.04.
